From article doi:10.64898/2025.12.08.693079 come the findings set out here.

The chains behind the UniProt entries cited, without tags or fusion partners.
UniProt P43583: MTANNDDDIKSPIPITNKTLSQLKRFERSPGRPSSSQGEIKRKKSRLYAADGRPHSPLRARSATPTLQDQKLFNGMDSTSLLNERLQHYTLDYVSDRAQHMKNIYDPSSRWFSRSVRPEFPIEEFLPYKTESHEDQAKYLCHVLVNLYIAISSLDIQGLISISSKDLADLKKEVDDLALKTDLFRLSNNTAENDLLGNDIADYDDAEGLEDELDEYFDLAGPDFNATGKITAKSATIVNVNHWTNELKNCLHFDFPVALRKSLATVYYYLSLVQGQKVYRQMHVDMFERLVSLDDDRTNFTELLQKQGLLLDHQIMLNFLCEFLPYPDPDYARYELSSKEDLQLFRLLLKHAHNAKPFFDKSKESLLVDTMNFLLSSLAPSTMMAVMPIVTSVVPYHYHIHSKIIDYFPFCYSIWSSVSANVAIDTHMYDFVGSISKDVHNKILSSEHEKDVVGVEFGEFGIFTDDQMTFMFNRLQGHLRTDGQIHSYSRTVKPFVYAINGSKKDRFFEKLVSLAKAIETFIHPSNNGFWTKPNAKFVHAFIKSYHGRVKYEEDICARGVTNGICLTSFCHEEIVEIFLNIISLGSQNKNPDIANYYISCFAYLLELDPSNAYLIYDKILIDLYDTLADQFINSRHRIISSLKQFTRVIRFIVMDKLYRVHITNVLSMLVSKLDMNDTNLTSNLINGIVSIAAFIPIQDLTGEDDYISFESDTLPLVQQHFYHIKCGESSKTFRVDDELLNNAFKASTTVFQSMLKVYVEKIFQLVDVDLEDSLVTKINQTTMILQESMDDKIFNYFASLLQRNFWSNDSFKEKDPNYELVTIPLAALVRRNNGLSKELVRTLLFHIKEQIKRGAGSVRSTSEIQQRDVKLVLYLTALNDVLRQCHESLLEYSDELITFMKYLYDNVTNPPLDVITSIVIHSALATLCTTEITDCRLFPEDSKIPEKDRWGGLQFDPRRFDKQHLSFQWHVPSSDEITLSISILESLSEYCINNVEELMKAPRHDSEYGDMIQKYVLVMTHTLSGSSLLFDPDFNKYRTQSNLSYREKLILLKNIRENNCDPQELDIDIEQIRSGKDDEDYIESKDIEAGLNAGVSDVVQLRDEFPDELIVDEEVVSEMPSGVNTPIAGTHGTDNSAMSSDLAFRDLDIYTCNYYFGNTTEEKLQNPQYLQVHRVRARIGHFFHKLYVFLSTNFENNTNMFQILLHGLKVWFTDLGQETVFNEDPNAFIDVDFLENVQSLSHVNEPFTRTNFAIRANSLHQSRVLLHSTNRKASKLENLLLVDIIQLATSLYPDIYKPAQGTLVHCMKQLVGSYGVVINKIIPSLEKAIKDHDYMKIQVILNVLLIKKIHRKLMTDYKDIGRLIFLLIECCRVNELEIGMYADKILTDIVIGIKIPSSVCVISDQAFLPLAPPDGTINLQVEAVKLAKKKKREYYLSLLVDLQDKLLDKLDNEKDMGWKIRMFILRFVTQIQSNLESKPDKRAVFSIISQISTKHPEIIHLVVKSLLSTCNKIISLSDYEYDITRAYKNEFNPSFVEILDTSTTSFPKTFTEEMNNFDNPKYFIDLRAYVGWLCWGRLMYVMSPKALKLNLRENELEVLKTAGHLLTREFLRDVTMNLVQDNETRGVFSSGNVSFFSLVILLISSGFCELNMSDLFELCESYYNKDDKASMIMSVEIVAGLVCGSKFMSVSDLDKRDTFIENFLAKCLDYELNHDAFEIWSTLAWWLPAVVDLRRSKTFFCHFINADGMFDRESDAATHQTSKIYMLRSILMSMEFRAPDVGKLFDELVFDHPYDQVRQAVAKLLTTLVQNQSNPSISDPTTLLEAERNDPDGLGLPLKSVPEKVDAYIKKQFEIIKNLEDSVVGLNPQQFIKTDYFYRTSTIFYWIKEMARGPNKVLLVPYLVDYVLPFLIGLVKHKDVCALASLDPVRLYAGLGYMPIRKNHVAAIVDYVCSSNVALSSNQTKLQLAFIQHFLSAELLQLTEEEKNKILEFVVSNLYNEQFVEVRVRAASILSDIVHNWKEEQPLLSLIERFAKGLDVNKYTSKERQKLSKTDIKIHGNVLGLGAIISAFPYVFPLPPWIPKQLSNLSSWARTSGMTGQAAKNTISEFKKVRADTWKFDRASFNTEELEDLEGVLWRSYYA
UniProt P43588: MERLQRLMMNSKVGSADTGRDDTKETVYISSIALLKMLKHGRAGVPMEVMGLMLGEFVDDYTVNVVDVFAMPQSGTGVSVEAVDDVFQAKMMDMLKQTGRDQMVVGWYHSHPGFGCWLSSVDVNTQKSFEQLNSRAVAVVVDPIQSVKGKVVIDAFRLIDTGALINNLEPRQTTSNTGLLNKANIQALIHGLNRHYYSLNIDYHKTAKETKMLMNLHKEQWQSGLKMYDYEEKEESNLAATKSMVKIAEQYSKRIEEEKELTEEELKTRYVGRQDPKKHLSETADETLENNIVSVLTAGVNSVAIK
UniProt P29311: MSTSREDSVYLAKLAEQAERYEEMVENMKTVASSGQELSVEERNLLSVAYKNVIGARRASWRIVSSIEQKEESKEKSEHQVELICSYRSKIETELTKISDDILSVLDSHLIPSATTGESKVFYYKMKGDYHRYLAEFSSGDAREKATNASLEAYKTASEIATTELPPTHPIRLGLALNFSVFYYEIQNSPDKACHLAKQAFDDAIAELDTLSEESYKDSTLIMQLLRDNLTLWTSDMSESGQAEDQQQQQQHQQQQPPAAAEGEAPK
UniProt P34730: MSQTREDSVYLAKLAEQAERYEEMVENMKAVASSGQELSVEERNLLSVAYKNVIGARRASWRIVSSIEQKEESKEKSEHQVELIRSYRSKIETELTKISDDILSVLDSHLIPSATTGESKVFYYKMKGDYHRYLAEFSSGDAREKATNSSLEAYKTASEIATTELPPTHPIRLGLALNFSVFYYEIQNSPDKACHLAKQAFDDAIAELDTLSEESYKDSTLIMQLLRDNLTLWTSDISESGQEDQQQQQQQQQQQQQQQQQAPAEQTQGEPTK

Assay [1] deals with 3x-Flag-tagged Blm10 (S. cerevisiae) (UniProt P43583). As to the kind of experiment: affinity purification with mass spectrometry.
For assay [2], the target named is 6His-Rpn11 (S. cerevisiae) (UniProt P43588). As to the kind of experiment: affinity purification with mass spectrometry.

No constants are given. Whether binding was seen depends on the method and setting. Binding seen in cells or lysates may run through a third protein. Here binding means that the protein was enriched with, or labelled near, the bait; the list need not be complete.

Turning to Bmh1 (from UniProt P29311 1-267), the binding entry in assay [1] was “binds”. Same read-out and setting: under Bmh2 (from UniProt P34730 1-273) stands “binds”.

B1: cyclin Cln2 (protein, UniProt P20438 1-545)
chain: MASAEPRPRMGLVINAKPDYYPIELSNAELLSHFEMLQEYHQEISTNVIAQSCKFKPNPKLIDQQPEMNPVETRSNIITFLFELSVVTRVTNGIFFHSVRLYDRYCSKRIVLRDQAKLVVATCLWLAAKTWGGCNHIINNVVIPTGGRFYGPNPRARIPRLSELVHYCGDGQVFDESMFLQMERHILDTLNWNIYEPMINDYVLNVDENCLMQYELYENQVTYDKQCSEKRQSQLSQDSDATVDERPYQNEEEEEEDLKLKIKLINLKKFLIDVSAWQYDLLRYELFEVSHGIFSIINQFTNQDHGPFLMTPMTSESKNGEILSTLMNGIVSIPNSLMEVYKTVNGVLPFINQVKEYHLDLQRKLQIASNLNISRKLTISTPSCSFENSNSTSIPSPASSSQSHTPMRNMSSLSDNSVFSRNMEQSSPITPSMYQFGQQQSNSICGSTVSVNSLVNTNNKQRIYEQITGPNSNNATNDYIDLLNLNESNKENQNPATAHYLNGGPPKTSFINHGMFPSPTGTINSGKSSSASSLISFGMGNTQVI
As to B1, the binding result in assay [2] is on record as “binds”.
